Data published in paper PMC4667695.
No constants are given. Whether binding was seen depends on the method and setting. In cells and extracts the contact can be indirect. Where a sequence is shown, tags or fusion partners need not be part of it.

The chains behind the UniProt entries cited, without tags or fusion partners. Where a name states a change or a piece, a line headed by the entry shows the natural chain unless it says otherwise.
UniProt Q9CAJ0: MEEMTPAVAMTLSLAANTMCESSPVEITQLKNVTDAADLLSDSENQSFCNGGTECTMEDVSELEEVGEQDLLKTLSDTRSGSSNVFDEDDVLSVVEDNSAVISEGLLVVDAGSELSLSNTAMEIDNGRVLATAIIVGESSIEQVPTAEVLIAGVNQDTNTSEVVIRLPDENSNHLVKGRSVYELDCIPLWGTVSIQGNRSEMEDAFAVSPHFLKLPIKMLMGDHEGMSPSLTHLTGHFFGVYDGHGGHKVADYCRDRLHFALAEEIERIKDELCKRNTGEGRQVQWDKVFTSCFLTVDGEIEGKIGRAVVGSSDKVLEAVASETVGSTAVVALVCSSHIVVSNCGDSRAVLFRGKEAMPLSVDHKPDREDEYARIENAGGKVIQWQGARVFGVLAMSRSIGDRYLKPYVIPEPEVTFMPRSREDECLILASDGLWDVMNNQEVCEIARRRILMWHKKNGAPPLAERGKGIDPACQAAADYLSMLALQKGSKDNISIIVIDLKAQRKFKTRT

Target: HAB1 (Arabidopsis thaliana) (UniProt Q9CAJ0)
Experiment: co-IP; Arabidopsis protoplasts co-transfected with Myc- and Flag-tagged constructs, 14-16 h; lysate (10 mM HEPES pH 7.5, 100 mM NaCl, 1 mM EDTA, 10% glycerol, 0.5% Triton X-100) on anti-c-Myc agarose 2 h at 4 °C; blots with anti-Flag and anti-Myc

B1: PUB12-Flag (enzyme, UniProt Q9ZV31 1-654)
chain: MAKSEKHKLAQTLIDSINEIASISDSVTPMKKHCANLSRRLSLLLPMLEEIRDNQESSSEVVNALLSVKQSLLHAKDLLSFVSHVSKIYLVLERDQVMVKFQKVTSLLEQALSIIPYENLEISDELKEQVELVLVQLRRSLGKRGGDVYDDELYKDVLSLYSGRGSVMESDMVRRVAEKLQLMTITDLTQESLALLDMVSSSGGDDPGESFEKMSMVLKKIKDFVQTYNPNLDDAPLRLKSSLPKSRDDDRDMLIPPEEFRCPISLELMTDPVIVSSGQTYERECIKKWLEGGHLTCPKTQETLTSDIMTPNYVLRSLIAQWCESNGIEPPKRPNISQPSSKASSSSSAPDDEHNKIEELLLKLTSQQPEDRRSAAGEIRLLAKQNNHNRVAIAASGAIPLLVNLLTISNDSRTQEHAVTSILNLSICQENKGKIVYSSGAVPGIVHVLQKGSMEARENAAATLFSLSVIDENKVTIGAAGAIPPLVTLLSEGSQRGKKDAATALFNLCIFQGNKGKAVRAGLVPVLMRLLTEPESGMVDESLSILAILSSHPDGKSEVGAADAVPVLVDFIRSGSPRNKENSAAVLVHLCSWNQQHLIEAQKLGIMDLLIEMAENGTDRGKRKAAQLLNRFSRFNDQQKQHSGLGLEDQISLI
binding: no binding

B2: PUB13-Flag (enzyme, UniProt Q9SNC6 1-660)
chain: MEEEKASAAQSLIDVVNEIAAISDYRITVKKLCYNLARRLKLLVPMFEEIRESNEPISEDTLKTLMNLKEAMCSAKDYLKFCSQGSKIYLVMEREQVTSKLMEVSVKLEQSLSQIPYEELDISDEVREQVELVLSQFRRAKGRVDVSDDELYEDLQSLCNKSSDVDAYQPVLERVAKKLHLMEIPDLAQESVALHEMVASSGGDVGENIEEMAMVLKMIKDFVQTEDDNGEEQKVGVNSRSNGQTSTAASQKIPVIPDDFRCPISLEMMRDPVIVSSGQTYERTCIEKWIEGGHSTCPKTQQALTSTTLTPNYVLRSLIAQWCEANDIEPPKPPSSLRPRKVSSFSSPAEANKIEDLMWRLAYGNPEDQRSAAGEIRLLAKRNADNRVAIAEAGAIPLLVGLLSTPDSRIQEHSVTALLNLSICENNKGAIVSAGAIPGIVQVLKKGSMEARENAAATLFSLSVIDENKVTIGALGAIPPLVVLLNEGTQRGKKDAATALFNLCIYQGNKGKAIRAGVIPTLTRLLTEPGSGMVDEALAILAILSSHPEGKAIIGSSDAVPSLVEFIRTGSPRNRENAAAVLVHLCSGDPQHLVEAQKLGLMGPLIDLAGNGTDRGKRKAAQLLERISRLAEQQKETAVSQPEEEAEPTHPESTTEAADT
binding: no binding
